Measurements as given in PubChem BioAssay AID330 (DTP/NCI, 2004).
The list shows only some results of the screen, not a fair sample: it gathers tests that were run many times, whatever their T/C, doses with no T/C, and many T/C values between a quarter and a half above the control. Further doses and runs are listed elsewhere. T/C is the treated group as % of the vehicle group. Some entries give survivors of the animals treated and no T/C: the source holds a T/C of zero for them, seemingly a mark for toxic or unscored doses. Some survivor counts are full or nearly so, which does not show that the dose was tolerated: survival well below the control is almost never listed, so the zero probably covers shortened survival too. Survivors were counted at the toxicity check, usually on the fifth day, unless a day is given; later deaths do not show. Schedules are NCI's codes, taken here to give the interval after Q, in days (D) or hours (H), and the number of doses after X. Some entries were tested several times; the values are given in rising order. For survival time, the PubChem record calls one and a half times the control and up active, and a quarter to a half above the control has no call in these data; cut-offs in other NCI protocols can differ. Some T/C values are followed by the survivors on the day toxicity was checked, most often the fifth; where none is given, no animal had died by that day.

Tested on: P388 leukemia ip, CD2F1 mice, survival T/C
Assay: NCI In Vivo Anticancer Drug Screen. Data for tumor model P388 Leukemia (intraperitoneal) in CD2F1 (CDF1) mice
Settings: T/C endpoint: median survival time, higher T/C = longer survival
[1] = dose: 200.0 mg/kg/injection, schedule: Q01DX009 (ip), vehicle: Klucel (hydroxypropylcellulose) (HPC)
[2] = dose: 6.25 mg/kg/injection, schedule: Q01DX009 (ip), vehicle: saline
[3] = dose: 12.5 mg/kg/injection, schedule: Q01DX009 (ip), vehicle: saline
[4] = dose: 25.0 mg/kg/injection, schedule: Q01DX009 (ip), vehicle: saline
[5] = dose: 0.62 mg/kg/injection, schedule: Q01DX009 (ip), vehicle: Klucel (hydroxypropylcellulose) (HPC)
[6] = dose: 1.25 mg/kg/injection, schedule: Q01DX009 (ip), vehicle: Klucel (hydroxypropylcellulose) (HPC)

COc1cc(O)c2c(c1)C(=O)C1=C(C2=O)[C@@H](C)OC(C)C1 (stereo not given in full)
survivor count (dose: 120.0 mg/kg/injection, schedule: Q01DX005 (ip), vehicle: saline with Tween-80): 6 of 6
survivor count (dose: 240.0 mg/kg/injection, schedule: Q01DX005 (ip), vehicle: saline with Tween-80): 6 of 6

CNC(=O)OCc1c(COC(=O)NC)c(-c2c(F)cccc2F)n2c1CCC2
T/C (dose: 3.13 mg/kg/injection, schedule: Q01DX009 (ip), vehicle: water): 148 % of control
T/C (dose: 12.5 mg/kg/injection, schedule: Q01DX009 (ip), vehicle: water): 148 % of control
survivor count (dose: 50.0 mg/kg/injection, schedule: Q01DX009 (ip), vehicle: distilled water + Tween-80): 4 of 6
survivor count (dose: 100.0 mg/kg/injection, schedule: Q01DX009 (ip), vehicle: distilled water + Tween-80): 0 of 6
survivor count (dose: 200.0 mg/kg/injection, schedule: Q01DX009 (ip), vehicle: distilled water + Tween-80): 0 of 6

N#Cc1cnc(N)c(C#N)c1
survivor count (dose: 100.0 mg/kg/injection, schedule: Q01DX009 (ip), vehicle: Klucel (hydroxypropylcellulose) (HPC)): 0 of 6
survivor count [1]: 0 of 6

O=C1C2CCCN2C(=O)C2([S-])CCCN12.O=C1C2CCCN2C(=O)C2([S-])CCCN12.[Zn+2] (stereo not given)
T/C [2]: 95 % of control
survivor count [2]: 6 of 6
T/C [3]: 91, 98, 103 [4 of 6 alive], 107 % of control
survivor count [3]: 5 of 6
T/C [4]: 104, 115, 116 % of control
survivor count [4]: 6 of 6
T/C (dose: 50.0 mg/kg/injection, schedule: Q01DX009 (ip), vehicle: saline): 91 [4 of 6 alive], 98, 111, 116, 120, 133 % of control
survivor count (dose: 100.0 mg/kg/injection, schedule: Q01DX009 (ip), vehicle: saline): 1 of 6
survivor count (dose: 200.0 mg/kg/injection, schedule: Q01DX009 (ip), vehicle: saline): 0 of 6

Cc1ccc2nc3sc(=O)sc3nc2c1
survivor count (dose: 240.0 mg/kg/injection, schedule: Q01DX005 (ip), vehicle: Klucel (hydroxypropylcellulose) (HPC)): 3 of 6

OCCN1CCN(CC/C=C2/c3ccccc3Sc3ccc(C(F)(F)F)cc32)CC1
T/C (dose: 20.0 mg/kg/injection, schedule: Q04DX003 (ip), vehicle: saline): 129 % of control
T/C (dose: 40.0 mg/kg/injection, schedule: Q04DX003 (ip), vehicle: saline): 126 and 135 % of control
T/C (dose: 80.0 mg/kg/injection, schedule: Q04DX003 (ip), vehicle: saline): 135 % of control

O=[n+]1ccn([O-])c2ccccc21.[Cu+2].[O-][Cl+3]([O-])([O-])O
survivor count (dose: 100.0 mg/kg/injection, schedule: Q04DX003 (ip), vehicle: saline + Tween-80 + alcohol): 0 of 6
survivor count (dose: 200.0 mg/kg/injection, schedule: Q04DX003 (ip), vehicle: saline + Tween-80 + alcohol): 0 of 6
survivor count (dose: 400.0 mg/kg/injection, schedule: Q04DX003 (ip), vehicle: saline + Tween-80 + alcohol): 0 of 6

Cc1cc(O)c(C=Nc2ccc3ccccc3c2)c2c1C(=O)Oc1c(CO)c(O)c(C(=O)O)c(C=Nc3ccc4ccccc4c3)c1O2
survivor count (dose: 25.0 mg/kg/injection, schedule: Q01DX005 (ip), vehicle: Klucel (hydroxypropylcellulose) (HPC)): 6 of 6
survivor count (dose: 50.0 mg/kg/injection, schedule: Q01DX005 (ip), vehicle: Klucel (hydroxypropylcellulose) (HPC)): 6 of 6

CN(C)c1ccc(/C=C/c2cc[n+](C)c(/C=C/c3ccc(N(C)C)cc3)c2)cc1
survivor count (dose: 3.13 mg/kg/injection, schedule: Q01DX005 (ip), vehicle: saline): 4 of 5
survivor count (dose: 6.25 mg/kg/injection, schedule: Q01DX005 (ip), vehicle: saline): 0 of 5
survivor count (dose: 12.5 mg/kg/injection, schedule: Q01DX005 (ip), vehicle: saline): 0 of 5
survivor count (dose: 25.0 mg/kg/injection, schedule: Q01DX005 (ip), vehicle: saline): 0 of 5
survivor count (dose: 50.0 mg/kg/injection, schedule: Q01DX005 (ip), vehicle: saline): 0 of 5
survivor count (dose: 100.0 mg/kg/injection, schedule: Q01DX005 (ip), vehicle: saline): 0 of 5
survivor count (dose: 200.0 mg/kg/injection, schedule: Q01DX005 (ip), vehicle: saline): 0 of 5

COC1(OC)C2C=CC1CC2
T/C (dose: 100.0 mg/kg/injection, schedule: Q01DX009 (ip), vehicle: saline with Tween-80): 131 % of control
T/C (dose: 200.0 mg/kg/injection, schedule: Q01DX009 (ip), vehicle: saline with Tween-80): 127 % of control

CCOC(=O)C(=O)Nc1oc(C)c(C)c1C#N
T/C (dose: 50.0 mg/kg/injection, schedule: Q01DX009 (ip), vehicle: saline + alcohol): 110, 110 [5 of 6 alive], 116, 124 % of control
survivor count (dose: 100.0 mg/kg/injection, schedule: Q01DX009 (ip), vehicle: saline + alcohol): 3 of 6
survivor count (dose: 200.0 mg/kg/injection, schedule: Q01DX009 (ip), vehicle: saline + alcohol): 0 of 6
survivor count (dose: 200.0 mg/kg/injection, schedule: Q04DX003 (ip), vehicle: saline + alcohol): 2 of 6
survivor count (dose: 400.0 mg/kg/injection, schedule: Q01DX001 (ip), vehicle: saline + alcohol): 0 of 6

Cc1c(CNc2ccc(C(=O)NC(CC(=O)O)C(=O)O)cc2)ccc2nc(N)nc(N)c12 (stereo not given)
survivor count (dose: 37.5 mg/kg/injection, schedule: Q04DX003 (ip), vehicle: saline with Tween-80): 6 of 6
survivor count (dose: 50.0 mg/kg/injection, schedule: Q04DX003 (ip), vehicle: saline with Tween-80): 6 of 6

CCn1c(=O)c2[nH]c(Cl)nc2n(CC(C)Cl)c1=O (stereo not given)
survivor count [1]: 0 of 6

COc1cc2c(c(OC)c1OC)-c1ccc(SC)c(=O)cc1[C@@H](NC(=O)C(F)(F)F)CC2
T/C (dose: 0.31 mg/kg/injection, schedule: Q01DX009 (ip), vehicle: Klucel (hydroxypropylcellulose) (HPC)): 136 and 139 % of control
T/C (dose: 0.32 mg/kg/injection, schedule: Q01DX009 (ip), vehicle: Klucel (hydroxypropylcellulose) (HPC)): 126 % of control
T/C [5]: 148 % of control
survivor count [5]: 3 of 6
T/C (dose: 0.63 mg/kg/injection, schedule: Q01DX009 (ip), vehicle: Klucel (hydroxypropylcellulose) (HPC)): 143 % of control
T/C [6]: 136 % of control
survivor count [6]: 4 of 6 and 5 of 6
survivor count (dose: 2.5 mg/kg/injection, schedule: Q01DX009 (ip), vehicle: Klucel (hydroxypropylcellulose) (HPC)): 0 of 6
survivor count (dose: 5.0 mg/kg/injection, schedule: Q01DX009 (ip), vehicle: Klucel (hydroxypropylcellulose) (HPC)): 0 of 6
survivor count (dose: 10.0 mg/kg/injection, schedule: Q01DX009 (ip), vehicle: Klucel (hydroxypropylcellulose) (HPC)): 0 of 6

CCOC(=O)c1ccc(=O)n2c1[nH]c1ccccc12
survivor count (dose: 100.0 mg/kg/injection, schedule: Q01DX005 (ip), vehicle: saline with Tween-80): 5 of 5
survivor count (dose: 200.0 mg/kg/injection, schedule: Q01DX005 (ip), vehicle: saline with Tween-80): 5 of 5

CC(C)CC(NC(=O)OCC1c2ccccc2-c2ccccc21)C(=O)O (stereo not given)
survivor count (dose: 200.0 mg/kg/injection, schedule: Q01DX005 (ip), vehicle: Klucel (hydroxypropylcellulose) (HPC)): 1 of 6

CC(=O)Nc1cc2cc(NC=C(C#N)C#N)ccc2oc1=O
survivor count (dose: 240.0 mg/kg/injection, schedule: Q01DX005 (ip), vehicle: Klucel + Tween-80): 6 of 6

CC(C)N[P+](c1ccccc1)(c1ccccc1)c1ccccc1
survivor count (dose: 50.0 mg/kg/injection, schedule: Q04DX003 (ip), vehicle: saline): 1 of 6
survivor count (dose: 100.0 mg/kg/injection, schedule: Q04DX003 (ip), vehicle: saline): 0 of 6
